This passage reports binding results from publication PMC5572707.

Sequences of proteins named here, by UniProt entry; tags and fusion partners are left off. Residues count along the entry.
UniProt P08581, residues 25-1390: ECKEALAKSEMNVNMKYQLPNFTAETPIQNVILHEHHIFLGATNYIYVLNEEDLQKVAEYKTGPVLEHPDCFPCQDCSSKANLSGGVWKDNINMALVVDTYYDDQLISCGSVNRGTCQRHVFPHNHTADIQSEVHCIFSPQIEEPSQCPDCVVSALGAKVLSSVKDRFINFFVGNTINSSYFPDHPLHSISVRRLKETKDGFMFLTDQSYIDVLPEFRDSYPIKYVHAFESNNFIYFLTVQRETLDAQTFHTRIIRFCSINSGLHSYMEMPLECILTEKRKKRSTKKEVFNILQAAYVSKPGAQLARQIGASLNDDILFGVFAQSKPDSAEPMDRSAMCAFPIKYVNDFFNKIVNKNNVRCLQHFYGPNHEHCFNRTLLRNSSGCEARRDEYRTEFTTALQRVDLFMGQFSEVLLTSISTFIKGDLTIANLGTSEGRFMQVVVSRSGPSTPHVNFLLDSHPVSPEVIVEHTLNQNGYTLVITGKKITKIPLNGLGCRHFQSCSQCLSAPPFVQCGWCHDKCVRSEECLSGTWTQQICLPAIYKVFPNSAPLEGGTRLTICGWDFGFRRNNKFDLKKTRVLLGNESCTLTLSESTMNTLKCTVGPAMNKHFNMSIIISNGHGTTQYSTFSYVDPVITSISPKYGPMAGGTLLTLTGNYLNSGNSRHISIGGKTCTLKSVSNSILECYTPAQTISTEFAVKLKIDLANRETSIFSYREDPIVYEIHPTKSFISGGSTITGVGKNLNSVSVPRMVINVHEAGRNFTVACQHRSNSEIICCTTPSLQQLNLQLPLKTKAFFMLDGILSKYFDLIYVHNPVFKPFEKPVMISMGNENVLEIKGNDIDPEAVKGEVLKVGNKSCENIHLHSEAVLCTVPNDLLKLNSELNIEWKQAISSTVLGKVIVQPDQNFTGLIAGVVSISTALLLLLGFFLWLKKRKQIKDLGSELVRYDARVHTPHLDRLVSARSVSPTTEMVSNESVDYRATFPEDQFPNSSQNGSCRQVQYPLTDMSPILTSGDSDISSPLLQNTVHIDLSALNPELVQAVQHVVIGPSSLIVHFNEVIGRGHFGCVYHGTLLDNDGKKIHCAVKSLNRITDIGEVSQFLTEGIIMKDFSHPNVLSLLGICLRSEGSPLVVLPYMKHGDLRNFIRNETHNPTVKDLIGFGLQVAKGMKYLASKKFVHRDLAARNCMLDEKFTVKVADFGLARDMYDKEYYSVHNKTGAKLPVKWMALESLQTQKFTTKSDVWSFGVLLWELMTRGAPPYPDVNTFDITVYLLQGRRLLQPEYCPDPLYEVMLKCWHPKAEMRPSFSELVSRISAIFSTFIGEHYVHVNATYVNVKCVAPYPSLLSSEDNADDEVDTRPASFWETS
UniProt P62330: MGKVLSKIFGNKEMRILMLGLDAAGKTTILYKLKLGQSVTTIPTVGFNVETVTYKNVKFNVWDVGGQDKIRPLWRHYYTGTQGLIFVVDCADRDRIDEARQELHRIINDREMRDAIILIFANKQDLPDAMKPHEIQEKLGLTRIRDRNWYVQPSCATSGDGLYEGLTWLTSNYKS
UniProt O14986: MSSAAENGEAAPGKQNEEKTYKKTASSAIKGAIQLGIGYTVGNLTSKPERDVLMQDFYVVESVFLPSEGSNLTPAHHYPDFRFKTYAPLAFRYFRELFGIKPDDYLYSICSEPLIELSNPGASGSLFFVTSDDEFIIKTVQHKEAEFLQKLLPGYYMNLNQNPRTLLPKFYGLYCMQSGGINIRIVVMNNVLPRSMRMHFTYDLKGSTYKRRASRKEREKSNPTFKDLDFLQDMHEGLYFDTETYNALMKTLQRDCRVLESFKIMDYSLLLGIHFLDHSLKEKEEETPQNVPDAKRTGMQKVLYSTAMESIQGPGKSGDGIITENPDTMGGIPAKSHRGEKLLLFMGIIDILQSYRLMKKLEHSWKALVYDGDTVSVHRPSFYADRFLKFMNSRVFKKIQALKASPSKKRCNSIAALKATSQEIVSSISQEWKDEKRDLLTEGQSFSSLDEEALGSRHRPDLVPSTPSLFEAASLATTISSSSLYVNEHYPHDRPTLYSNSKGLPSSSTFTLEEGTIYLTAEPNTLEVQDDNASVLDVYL
UniProt Q99755: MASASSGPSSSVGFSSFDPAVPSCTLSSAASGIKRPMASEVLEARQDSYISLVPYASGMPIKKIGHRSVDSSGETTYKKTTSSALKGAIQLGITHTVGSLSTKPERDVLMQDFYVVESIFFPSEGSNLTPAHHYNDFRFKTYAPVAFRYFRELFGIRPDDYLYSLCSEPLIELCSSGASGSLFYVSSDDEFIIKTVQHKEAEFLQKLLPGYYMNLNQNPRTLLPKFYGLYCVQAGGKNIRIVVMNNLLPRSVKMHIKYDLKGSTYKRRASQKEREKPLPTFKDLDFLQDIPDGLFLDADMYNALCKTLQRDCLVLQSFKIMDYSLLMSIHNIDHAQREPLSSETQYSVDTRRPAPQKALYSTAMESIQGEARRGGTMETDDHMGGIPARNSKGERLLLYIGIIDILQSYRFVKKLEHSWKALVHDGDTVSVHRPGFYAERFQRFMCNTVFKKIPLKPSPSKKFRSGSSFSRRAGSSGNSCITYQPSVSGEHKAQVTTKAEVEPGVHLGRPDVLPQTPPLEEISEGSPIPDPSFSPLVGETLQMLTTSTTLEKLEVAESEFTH
UniProt O60331: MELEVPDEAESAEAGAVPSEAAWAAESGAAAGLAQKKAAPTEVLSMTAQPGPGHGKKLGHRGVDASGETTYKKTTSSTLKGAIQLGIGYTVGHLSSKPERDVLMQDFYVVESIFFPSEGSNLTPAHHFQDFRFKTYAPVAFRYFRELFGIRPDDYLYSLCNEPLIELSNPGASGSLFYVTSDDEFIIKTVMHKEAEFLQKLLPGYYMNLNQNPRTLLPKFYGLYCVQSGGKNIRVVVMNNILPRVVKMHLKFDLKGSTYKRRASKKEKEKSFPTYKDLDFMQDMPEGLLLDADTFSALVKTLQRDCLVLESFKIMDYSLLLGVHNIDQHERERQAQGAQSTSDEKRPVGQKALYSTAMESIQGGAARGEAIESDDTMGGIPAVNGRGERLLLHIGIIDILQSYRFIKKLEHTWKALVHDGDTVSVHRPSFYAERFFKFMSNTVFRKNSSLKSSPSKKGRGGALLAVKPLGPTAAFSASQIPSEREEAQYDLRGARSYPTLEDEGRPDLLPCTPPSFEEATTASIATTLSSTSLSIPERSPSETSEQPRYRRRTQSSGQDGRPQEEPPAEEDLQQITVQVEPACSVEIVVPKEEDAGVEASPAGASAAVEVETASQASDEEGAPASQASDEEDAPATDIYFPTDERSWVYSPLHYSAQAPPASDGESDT

The target of test [1] is HGF receptor c-Met (human (endogenous in HepG2)) (UniProt P08581). The experiment in a line: co-IP; endogenous c-Met immunoprecipitated with anti-c-Met antibody from lysates of HepG2 cells transfected with control siRNA or Arf6 siRNA and stimulated with 10 ng/mL HGF for the indicated time; lysis buffer 25 mM Tris-HCl pH 7.5, 1% Triton X-100, 10 mM NaCl, 1 mM EGTA, 5 mM MgCl2; 4 °C, 4 h; Western blot with anti-Arf6 and anti-PIP5K1A.

In test [2] the target is ADP-ribosylation factor 6 (Arf6) (human (endogenous in HepG2)) (UniProt P62330). As to the kind of experiment: co-IP; endogenous Arf6 immunoprecipitated from lysates of HepG2 cells stimulated with 10 ng/mL HGF for the indicated time; lysis buffer 25 mM Tris-HCl pH 7.5, 1% Triton X-100, 10 mM NaCl, 1 mM EGTA, 5 mM MgCl2; 4 °C, 4 h; Western blot with antibodies specific to each PIP5K1 isoform. In general terms: A western blot detects proteins with antibodies after separation by electrophoresis.

Results are given in words; binding and its absence hold for the method and conditions named. In cells and extracts the contact can be indirect. Some entries that bind do so weakly or less than the wild type.

In the case of “ADP-ribosylation factor 6 (Arf6) (from UniProt P62330 1-175)”, in test [1], the binding entry is “binds”.

Consider “type I phosphatidylinositol 4-phosphate 5-kinase PIP5K1B (from UniProt O14986 1-540) (enzyme)”, for which the binding result in test [2] was “no binding”. On the same count and under the same terms, in the case of “type I phosphatidylinositol 4-phosphate 5-kinase PIP5K1A (from UniProt Q99755 1-562) (enzyme)” it was “binds”; in that of “type I phosphatidylinositol 4-phosphate 5-kinase PIP5K1C (from UniProt O60331 1-668) (enzyme)”, “no binding”.
